According to the supplement of paper PMC8728848:
This is one part of the list.

How the values were obtained:
Assay in all cases: glycan array binding signal (z-score within array); higher = stronger binding
Details in all cases: glycan notation: IUPAC condensed, linker removed
[1] = target: Man(a1-2)Man(a1-3)[Man(a1-6)]Man(a1-6)[Man(a1-2)Man(a1-3)]Man(b1-4)GlcNAc(b1-4)GlcNAc
Procedure, shortened: (§1)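 Negative Z-scores can be read as non-binding. The Z-score is calculated within each array and then averaged across arrays of one protein sequence at different concentrations or buffers and across linkers. Arrays, 3228 in all, were curated from the Consortium for Functional Glycomics database and kept only where the protein sequence was available.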

[2] = target: Man(a1-2)Man(a1-6)[Man(a1-3)]Man(a1-6)[Man(a1-2)Man(a1-2)Man(a1-3)]Man
Procedure, shortened: as §1

[3] = target: Man(a1-2)Man(a1-6)[Man(a1-3)]Man(a1-6)[Man(a1-2)Man(a1-2)Man(a1-3)]Man(b1-4)GlcNAc(b1-4)GlcNAc
Procedure, shortened: as §1

[4] = target: Man(a1-3)[Man(a1-6)]Man
Procedure, shortened: as §1

[5] = target: Man(a1-3)[Man(a1-6)]Man(a1-6)[Man(a1-2)Man(a1-3)]Man(b1-4)GlcNAc(b1-4)GlcNAc
Procedure, shortened: as §1

[6] = target: Man(a1-3)[Man(a1-6)]Man(a1-6)[Man(a1-3)]Man
Procedure, shortened: as §1

[7] = target: Man(a1-3)[Man(a1-6)]Man(a1-6)[Man(a1-3)]Man(b1-4)GlcNAc(b1-4)GlcNAc
Procedure, shortened: as §1

[8] = target: Man(a1-3)[Man(a1-6)]Man(b1-4)GlcNAc(b1-4)GlcNAc
Procedure, shortened: as §1

[9] = target: Man(a1-6)Man
Procedure, shortened: as §1

[10] = target: Man(b1-4)GlcNAc
Procedure, shortened: as §1

[11] = target: Neu5Ac(a2-3)Gal
Procedure, shortened: as §1

[12] = target: Neu5Ac(a2-3)Gal(b1-3)GalNAc
Procedure, shortened: as §1

[13] = target: Neu5Ac(a2-3)Gal(b1-3)GalNAc(b1-3)Gal(a1-4)Gal(b1-4)Glc
Procedure, shortened: as §1

[14] = target: Neu5Ac(a2-3)Gal(b1-3)GalNAc(b1-4)[Neu5Ac(a2-3)]Gal(b1-4)Glc
Procedure, shortened: as §1

[15] = target: Neu5Ac(a2-3)Gal(b1-3)GalNAc(b1-4)[Neu5Ac(a2-8)Neu5Ac(a2-3)]Gal(b1-4)Glc
Procedure, shortened: as §1

[16] = target: Neu5Ac(a2-3)Gal(b1-3)GalNAc6S
Procedure, shortened: as §1

[17] = target: Neu5Ac(a2-3)Gal(b1-3)GlcNAc
Procedure, shortened: as §1

[18] = target: Neu5Ac(a2-3)Gal(b1-3)GlcNAc(b1-3)Gal(b1-3)GlcNAc
Procedure, shortened: as §1

[19] = target: Neu5Ac(a2-3)Gal(b1-3)GlcNAc(b1-3)Gal(b1-4)GlcNAc
Procedure, shortened: as §1

[20] = target: Neu5Ac(a2-3)Gal(b1-3)GlcNAc(b1-3)GalNAc
Procedure, shortened: as §1

[21] = target: Neu5Ac(a2-3)Gal(b1-3)GlcNAc6S
Procedure, shortened: as §1

[22] = target: Neu5Ac(a2-3)Gal(b1-3)[Fuc(a1-4)]GlcNAc
Procedure, shortened: as §1

[23] = target: Neu5Ac(a2-3)Gal(b1-3)[Fuc(a1-4)]GlcNAc(b1-3)Gal(b1-3)[Fuc(a1-4)]GlcNAc
Procedure, shortened: as §1

[24] = target: Neu5Ac(a2-3)Gal(b1-3)[Fuc(a1-4)]GlcNAc(b1-3)Gal(b1-4)[Fuc(a1-3)]GlcNAc
Procedure, shortened: as §1

[25] = target: Neu5Ac(a2-3)Gal(b1-3)[Neu5Ac(a2-3)Gal(b1-4)]GlcNAc
Procedure, shortened: as §1

[26] = target: Neu5Ac(a2-3)Gal(b1-3)[Neu5Ac(a2-6)]GalNAc
Procedure, shortened: as §1

[27] = target: Neu5Ac(a2-3)Gal(b1-4)Glc
Procedure, shortened: as §1

[28] = target: Neu5Ac(a2-3)Gal(b1-4)GlcNAc
Procedure, shortened: as §1

[29] = target: Neu5Ac(a2-3)Gal(b1-4)GlcNAc(b1-2)Man(a1-3)[GlcNAc(b1-2)Man(b1-4)GlcNAc(b1-2)Man(a1-6)]Man(b1-4)GlcNAc(b1-4)GlcNAc
Procedure, shortened: as §1

[30] = target: Neu5Ac(a2-3)Gal(b1-4)GlcNAc(b1-2)Man(a1-3)[Neu5Ac(a2-6)Gal(b1-4)GlcNAc(b1-2)Man(a1-6)]Man(b1-4)GlcNAc(b1-4)GlcNAc
Procedure, shortened: as §1

B1: RetS (Pseudomonas aeruginosa), Q9HUV7 (protein)
chain: MVRLRIAIGLLVSFLLLLLGPMSPAVADDAGVSSVPLQTTATTPSANQNWRLLRDESAQLRIADVLQRKEQFRPLAKRSFIFPASPQAVWLQVQLPAQKVPSWLWIFAPRVQYLDYYLVQDGQLVRDQHTGESRPFQERPLPSRSYLFSLPVDGKPMTLYVRMTSNHPLMAWFDQIDEAGLVGLEKPAYAFGMLLGGMLLLLMYNLIRFAYSRSASSLWLAAVHAALAVCAAANLGLVAFWLPGLKFNQSLTADLGALGAAVSLLWFACSFFRGTAESRLNRLLQGEALLILAVGAIIAFTQQLWFSWLIYLLVILSSLSVPLIAAWHWYRGYQPARLIVAGMIVFNAGFMVFLPVLFGTKQLDPGWLVLGVFSFATLAGLVLSVSLTERQRLIQQLNLQQRTSEAAHTAELQTKAEFLAKISHEIRTPMNGVLGMTELLLGTPLSAKQRDYVQTIHSAGNELLTLINEILDISKLESGQIELDEVQFDLNALIEDCLDIFRVKAEQQRIELISFTQPQVPRVIGGDPTRLRQVVLSLLDNAFKQTEEGEILLVVALDDQGETPRLRIAVQDSGHPFDAKEREALLTAELHSGDFLSASKLGSHLGLIIARQLVRLMGGEFGIQSGSSQGTTLSLTLPLDPQQLENPTADLDGPLQGARLLVVDDNETCRKVLVQQCSGWGLNVSAVSSGKEALAQLRTKAHLREYFDVVLLDQDMPGMTGMQLAAKIKEDPNLNHDILLIMLTGISNAPSKIIARNAGIKRILAKPVAGYTLKATLADELAQRGVSGVTNYLQPAKEAQAPSLPSDFRILVAEDNSISTKVIRGMLNKLNLQPDTASNGQEALSAMKATQYDLVLMDCEMPVLDGFSATEQLRAWEAHEQRPHTPVVALTAHILSEHKERARLVGMDGHMAKPVELSQLRELIAYWVGERDRRRQGDALPS
glycan array binding signal (z-score) [1]: 0.409 | glycan array binding signal (z-score) [2]: -1.18 | glycan array binding signal (z-score) [3]: -0.927 | glycan array binding signal (z-score) [4]: -1.2 | glycan array binding signal (z-score) [5]: -0.192 | glycan array binding signal (z-score) [6]: 0.706 | glycan array binding signal (z-score) [7]: 0.027 | glycan array binding signal (z-score) [8]: 0.502 | glycan array binding signal (z-score) [9]: 0.013 | glycan array binding signal (z-score) [10]: -1.04 | glycan array binding signal (z-score) [11]: -0.963 | glycan array binding signal (z-score) [12]: -0.269 | glycan array binding signal (z-score) [13]: 0.556 | glycan array binding signal (z-score) [14]: 0.174 | glycan array binding signal (z-score) [15]: -1.1 | glycan array binding signal (z-score) [16]: -0.232 | glycan array binding signal (z-score) [17]: -0.654 | glycan array binding signal (z-score) [18]: -0.613 | glycan array binding signal (z-score) [19]: -0.057 | glycan array binding signal (z-score) [20]: -0.17 | glycan array binding signal (z-score) [21]: 1.92 | glycan array binding signal (z-score) [22]: -1.94 | glycan array binding signal (z-score) [23]: -0.834 | glycan array binding signal (z-score) [24]: 0.331 | glycan array binding signal (z-score) [25]: -0.141 | glycan array binding signal (z-score) [26]: 1.21 | glycan array binding signal (z-score) [27]: -0.669 | glycan array binding signal (z-score) [28]: 0.356 | glycan array binding signal (z-score) [29]: -0.478 | glycan array binding signal (z-score) [30]: -0.836
